This assay concerns the target lamin A/C (UniProt P02545). Kind of assay: co-IP; coimmunoprecipitation of TDP-43 and lamin A/C; no methods, conditions or figure given.

Sequences of proteins named here, by UniProt entry; tags and fusion partners are left off. Residues count along the entry.
UniProt P02545, residues 1-646: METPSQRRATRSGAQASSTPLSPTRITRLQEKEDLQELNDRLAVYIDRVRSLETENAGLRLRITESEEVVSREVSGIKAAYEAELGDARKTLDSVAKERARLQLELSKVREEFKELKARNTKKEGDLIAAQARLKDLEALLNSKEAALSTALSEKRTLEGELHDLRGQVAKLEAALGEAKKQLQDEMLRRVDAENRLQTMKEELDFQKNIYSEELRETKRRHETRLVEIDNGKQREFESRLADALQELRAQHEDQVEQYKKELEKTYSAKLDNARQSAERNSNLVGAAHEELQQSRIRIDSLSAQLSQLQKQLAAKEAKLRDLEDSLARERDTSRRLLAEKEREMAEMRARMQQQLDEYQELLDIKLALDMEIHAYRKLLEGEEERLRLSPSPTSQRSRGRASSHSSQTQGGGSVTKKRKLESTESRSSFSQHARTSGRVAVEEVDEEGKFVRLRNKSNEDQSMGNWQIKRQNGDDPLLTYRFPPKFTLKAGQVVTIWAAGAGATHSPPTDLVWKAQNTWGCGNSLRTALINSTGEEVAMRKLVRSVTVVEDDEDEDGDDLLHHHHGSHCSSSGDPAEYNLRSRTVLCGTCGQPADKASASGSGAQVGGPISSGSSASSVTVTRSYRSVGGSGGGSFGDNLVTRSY
UniProt Q13148: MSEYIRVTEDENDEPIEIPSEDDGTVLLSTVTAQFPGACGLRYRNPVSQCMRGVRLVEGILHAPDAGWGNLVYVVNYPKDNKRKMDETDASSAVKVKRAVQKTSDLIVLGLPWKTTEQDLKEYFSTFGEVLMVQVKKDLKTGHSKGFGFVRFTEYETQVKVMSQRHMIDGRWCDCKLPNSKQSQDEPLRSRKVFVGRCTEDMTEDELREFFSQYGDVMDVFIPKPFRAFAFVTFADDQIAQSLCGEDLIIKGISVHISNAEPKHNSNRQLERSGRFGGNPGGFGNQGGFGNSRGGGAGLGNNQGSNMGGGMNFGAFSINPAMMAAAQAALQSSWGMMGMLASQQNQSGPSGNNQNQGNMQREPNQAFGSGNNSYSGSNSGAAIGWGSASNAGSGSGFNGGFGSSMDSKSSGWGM

Results are given in words; binding and its absence hold for the method and conditions named. In cells and extracts the contact can be indirect.

Regarding TDP-43 (from UniProt Q13148 1-414), the binding result is “no binding”.

Values taken from PMC10897466.
